Laboratory results: patent publication US6100246A, “Spiro-piperidine derivatives as inhibitors of nitric oxide synthase” (Astra Pharmaceuticals Limited, priority 1997, dated 2000)
Some results were stated once for a whole list of compounds, not compound by compound.

Biological target: T1, nitric oxide synthase (Mus musculus, UniProt P29477)
T1 construct: Nitric oxide synthase is produced by cells in response to interferon-g (IFNg) and lipopolysaccharide (LPS); endogenous in cells; host or cells: J774A-1 murine macrophage cell line (Imperial Cancer Research Fund), induced with LPS and IFN-gamma; crude cell lysate
Assay: Screen 1: inhibition of induced nitric oxide synthase from murine macrophage cell line J774A-1 (conversion of 3H-L-arginine into 3H-L-citrulline)
Assay type: biochemical
Conditions: J774A-1 cell lysate, IFNg/LPS induced; incubation 1 hour at room temperature; read-out: IC50 (concentration of drug substance which gives 50% enzyme inhibition in the assay)

| Compound | IC50 [nM] |
| --- | --- |
| CCOC(=O)N1CCC2(CC1)Cc1sccc1C(N)=N2 [Example 2, Ethyl 4'-aminospiro[piperidine-4,6'(7'H)-thieno[3,2-c]pyridine]-1-carboxylate] | < 1000 |
| CCOC(=O)N1CCC2(CC1)Cc1ccsc1C(N)=N2 [Example 3, Ethyl 7'-aminospiro[piperidine-4,5'(4'H)-thieno[2,3-c]pyridine]-1-carboxylate] | < 1000 |
| CCOC(=O)N1CCC2(CC1)N=C(N)c1c(F)cccc1O2 [Example 1, Ethyl 4-amino-5-fluorospiro[2H-(1,3)-benzoxazine-2,4'-piperidine]-1'-carboxylate] | < 1000 |
